Test results published in PubChem BioAssay AID256 (DTP/NCI, 2004).
The list shows only some results of the screen, not a fair sample: it gathers tests that were run many times, whatever their T/C, doses with no T/C, and many T/C values between a quarter and a half above the control. Further doses and runs are listed elsewhere. T/C gives the treated animals as a percentage of the vehicle group. Some doses have a count of surviving animals in place of a T/C: the source holds a T/C of zero for them, seemingly a mark for toxic or unscored doses. Some doses without a T/C left all or most animals alive at the check, yet need not have been tolerated: the source hardly ever lists a survival T/C far under the control, and the zero likely stands for such cases as well. Survivors were counted at the toxicity check, usually on the fifth day, unless a day is given; later deaths do not show. Schedules are NCI's codes, read here as Q, the interval in days (D) or hours (H), X, the number of doses. Some entries were tested several times; their values stand side by side, smallest first. For survival time, this PubChem deposit counts one and a half times the control or more as active, and values a quarter to a half above the control carry no call in these data; other NCI protocols may use other cut-offs. Some T/C values are followed by the survivors on the day toxicity was checked, most often the fifth; where none is given, no animal had died by that day.

Tested on: CD2F1 mice, L1210 leukemia ip, survival T/C
Test: NCI In Vivo Anticancer Drug Screen. Data for tumor model L1210 Leukemia (intraperitoneal) in CD2F1 (CDF1) mice
Conditions: higher T/C = longer survival
How it was run: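 Activity against a transplanted murine tumor was judged by comparing the compound group with a vehicle group. The outcome in the treated animals was divided by that in the controls.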

[1] = T/C endpoint: mean survival time, dose: 400.0 mg/kg/injection, schedule: Q01DX001 (ip), vehicle: saline with Tween-80
[2] = T/C endpoint: mean survival time, dose: 300.0 mg/kg/injection, schedule: Q01DX001 (ip), vehicle: saline

## CC(C)(C)C1=CC(=O)C(Cl)(C(C)(C)C)C(Cl)C1=O (stereo unspecified)
T/C endpoint: mean survival time, dose: 100.0 mg/kg/injection, schedule: Q01DX001 (ip), vehicle: saline with Tween-80
  survivor count: 3 of 3

## CCC(c1ccc2cc(OC)ccc2c1)C(C(=O)O)C(=O)O (stereo unspecified)
T/C endpoint: mean survival time, dose: 400.0 mg/kg/injection, schedule: Q04DX003 (ip), vehicle: Klucel (hydroxypropylcellulose) (HPC)
  survivor count: 2 of 6

## CCOP(=[Se])(OCC)[Se][Se][Se]P(=[Se])(OCC)OCC
T/C endpoint: mean survival time, dose: 200.0 mg/kg/injection, schedule: Q01DX001 (ip), vehicle: saline
  survivor count: 2 of 6
T/C endpoint: mean survival time, dose: 400.0 mg/kg/injection, schedule: Q01DX001 (ip), vehicle: saline
  survivor count: 3 of 6

## CC(C)CCCC(C)C1CCC2C3CC(CO)C4CC(O)CCC4(C)C3CCC12C (stereo unspecified)
T/C endpoint: mean survival time, dose: 400.0 mg/kg/injection, schedule: Q04DX003 (ip), vehicle: saline with Tween-80
  survivor count: 0 of 6

## Nc1n[nH]c2ccccc12
T/C endpoint: median survival time, dose: 100.0 mg/kg/injection, schedule: Q01DX009 (ip), vehicle: acid diluted with saline
  T/C: 127 and 128 % of control
T/C endpoint: median survival time, dose: 200.0 mg/kg/injection, schedule: Q01DX009 (ip), vehicle: acid diluted with saline
  T/C: 146 % of control
T/C endpoint: median survival time, dose: 400.0 mg/kg/injection, schedule: Q01DX009 (ip), vehicle: acid diluted with saline
  survivor count: 3 of 6 and 5 of 6

## Clc1ccccc1C(Nc1cnccn1)Nc1cnccn1
T/C endpoint: median survival time, dose: 400.0 mg/kg/injection, schedule: Q01DX009 (ip), vehicle: saline with Tween-80
  survivor count: 2 of 6

## O=C(O)/C=C/c1ccc([N+](=O)[O-])o1
[1]
  survivor count: 0 of 3

## C=CCN(C)N=Nc1ccc(NC(N)=O)cc1
T/C endpoint: mean survival time, dose: 18.75 mg/kg/injection, schedule: Q01DX009 (ip), vehicle: Klucel (hydroxypropylcellulose) (HPC)
  T/C: 128 % of control
T/C endpoint: mean survival time, dose: 37.5 mg/kg/injection, schedule: Q01DX009 (ip), vehicle: Klucel (hydroxypropylcellulose) (HPC)
  T/C: 138 and 139 % of control
T/C endpoint: mean survival time, dose: 75.0 mg/kg/injection, schedule: Q01DX009 (ip), vehicle: Klucel (hydroxypropylcellulose) (HPC)
  T/C: 140 % of control [4 of 6 alive]
T/C endpoint: mean survival time, dose: 150.0 mg/kg/injection, schedule: Q01DX009 (ip), vehicle: Klucel (hydroxypropylcellulose) (HPC)
  survivor count: 0 of 6

## CCC1c2cc(O)c(OC)cc2CCN1C (stereo unspecified)
T/C endpoint: mean survival time, dose: 150.0 mg/kg/injection, schedule: Q01DX001 (ip), vehicle: saline
  survivor count: 1 of 6
[2]
  survivor count: 0 of 6

## CCCCCCCCCC(=O)NC(=S)Nc1ccc(C(=O)OCCCC)cc1
[1]
  survivor count: 6 of 6

## CSc1nc(=O)[nH]nc1Sc1ccccc1
[2]
  survivor count: 0 of 6

## Clc1nc(Cl)n2ccncc12
T/C endpoint: mean survival time, dose: 100.0 mg/kg/injection, schedule: Q01DX009 (ip), vehicle: saline with Tween-80
  survivor count: 0 of 6
T/C endpoint: mean survival time, dose: 200.0 mg/kg/injection, schedule: Q01DX009 (ip), vehicle: saline with Tween-80
  survivor count: 0 of 6
T/C endpoint: mean survival time, dose: 400.0 mg/kg/injection, schedule: Q01DX009 (ip), vehicle: saline with Tween-80
  survivor count: 0 of 6
